Laboratory results: PubChem BioAssay AID493246 (Drosophila RNAi Screening Center, 2011)
Test: 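Identify essential fly genes by loss of cell viability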 (primary screen). System: Drosophila Kc and S2R+ cells. Reagents: long dsRNA against Drosophila genes. Read-out: 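Raw, unnormalised count of remaining cells in each well; per-plate z-scores of cell number underlie the calls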. Reading the numbers: Kc cell number and S2R+ cell number: higher = more cells remaining. Call rule: 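Active when the per-plate z-score of cell number is 3 or more in the direction of fewer cells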.
In all, the deposit lists about 21,000 reagents; shown is an unselected part of those with a known target gene and a result. Of all reagents, 429 (2%) got an active call. 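Values are raw and not normalised between plates; calls rest on per-plate z-scores that were not deposited.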 Entries without a mark were called inactive. The record does not give: the amount of reagent, the time to read-out.

pea (peanuts) [DRSC07120] gave Kc cell number, rep 1 = 1.20e6; Kc cell number, rep 2 = 1.31e6; S2R+ cell number, rep 1 = 8.96e5; S2R+ cell number, rep 2 = 1.01e6.
Silencing of pds5 [DRSC06670] came out at: Kc cell number, rep 1 = 1.35e6; Kc cell number, rep 2 = 1.36e6; S2R+ cell number, rep 1 = 1.12e6; S2R+ cell number, rep 2 = 1.17e6.
Silencing of Ctr1C (Copper transporter 1C) [DRSC15089] came out at: Kc cell number, rep 1 = 1.42e6; Kc cell number, rep 2 = 1.46e6; S2R+ cell number, rep 1 = 1.04e6; S2R+ cell number, rep 2 = 1.16e6.
Against GstD9 (Glutathione S transferase D9) [DRSC14185], the entry reads Kc cell number, rep 1 = 1.49e6; Kc cell number, rep 2 = 1.44e6; S2R+ cell number, rep 1 = 1.23e6; S2R+ cell number, rep 2 = 1.29e6.
Dok (Downstream of kinase) [DRSC18204] gave Kc cell number, rep 1 = 1.68e6; Kc cell number, rep 2 = 1.62e6; S2R+ cell number, rep 1 = 1.00e6; S2R+ cell number, rep 2 = 1.10e6.
After knock-down of Tcs4 (Threonyl-carbamoyl synthesis 4) [DRSC19587], the screen gave Kc cell number, rep 1 = 1.56e6; Kc cell number, rep 2 = 1.60e6; S2R+ cell number, rep 1 = 1.07e6; S2R+ cell number, rep 2 = 1.22e6.
After knock-down of yellow-d2 [DRSC04591], the screen gave Kc cell number, rep 1 = 1.62e6; Kc cell number, rep 2 = 1.81e6; S2R+ cell number, rep 1 = 1.42e6; S2R+ cell number, rep 2 = 1.49e6.
After knock-down of Polr2I (RNA polymerase II subunit I) [DRSC16832], the record shows Kc cell number, rep 1 = 1.60e6; Kc cell number, rep 2 = 1.64e6; S2R+ cell number, rep 1 = 9.34e5; S2R+ cell number, rep 2 = 1.07e6.
Depletion of CG12316 [DRSC09879] resulted in: Kc cell number, rep 1 = 1.53e6; Kc cell number, rep 2 = 1.54e6; S2R+ cell number, rep 1 = 1.31e6; S2R+ cell number, rep 2 = 1.32e6.
Against CG18476 [DRSC15281], the values are Kc cell number, rep 1 = 1.50e6; Kc cell number, rep 2 = 1.60e6; S2R+ cell number, rep 1 = 1.25e6; S2R+ cell number, rep 2 = 1.29e6.
Depletion of Art9 (Arginine methyltransferase 9) [DRSC16584] gave: Kc cell number, rep 1 = 1.26e6; Kc cell number, rep 2 = 1.30e6; S2R+ cell number, rep 1 = 1.20e6; S2R+ cell number, rep 2 = 1.40e6.
For CG3277 [DRSC00588], the entry reads Kc cell number, rep 1 = 1.54e6; Kc cell number, rep 2 = 1.37e6; S2R+ cell number, rep 1 = 1.14e6; S2R+ cell number, rep 2 = 1.28e6.
With knock-down of Picot [DRSC07508], the screen gave Kc cell number, rep 1 = 1.67e6; Kc cell number, rep 2 = 1.53e6; S2R+ cell number, rep 1 = 1.09e6; S2R+ cell number, rep 2 = 1.14e6.
After knock-down of CG5404 [DRSC15793], the screen gave Kc cell number, rep 1 = 1.54e6; Kc cell number, rep 2 = 1.54e6; S2R+ cell number, rep 1 = 1.55e6; S2R+ cell number, rep 2 = 1.67e6.

A stretch taken from the entries so far, for reference:
Art9 (Arginine methyltransferase 9) [DRSC16584] → Kc cell number, rep 1: 1.26e6; Kc cell number, rep 2: 1.30e6; S2R+ cell number, rep 1: 1.20e6; S2R+ cell number, rep 2: 1.40e6
CG3277 [DRSC00588] → Kc cell number, rep 1: 1.54e6; Kc cell number, rep 2: 1.37e6; S2R+ cell number, rep 1: 1.14e6; S2R+ cell number, rep 2: 1.28e6
